Measurements reported in PubChem BioAssay AID652272 (Drosophila RNAi Screening Center, 2013).

- Screen: 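Finding fly genes that regulate Hedgehog signal transduction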 (primary screen)
- Cells: Drosophila clone 8 (Cl8) cells
- Knock-down reagent: long dsRNA against Drosophila genes
- Measured: 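Plate reader light from a firefly reporter under a ptc promoter fragment that responds to Hedgehog, with Renilla light as transfection reference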
- Direction: firefly Hh reporter signal: higher = more ptc reporter light; Renilla reference signal: higher = more Renilla control light
- Rule for the call: 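Hit when the z-score averaged over two replicates is under -2 or over +3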
- Meaning of the calls: active = hit: reporter lowered or raised; inactive = not a hit
The screen tested about 21,000 reagents; below is an unselected part of those with a known target gene and a result. In the full data, 503 (2.4%) are marked active. 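Raw plate light values, not normalised; calls rest on replicate z-scores that were not deposited; hits include reporter decreases as well as increases.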 Reagents against one gene are numbered here. Names joined by + are all predicted targets of the reagent. No sequences are given here. The record does not give: the amount of reagent, the time to read-out.

The opening 2 records, ahead of the listing:
Gcn2 | firefly Hh reporter signal, replicate 1 = 56411; firefly Hh reporter signal, replicate 2 = 67112; Renilla reference signal, replicate 1 = 1705; Renilla reference signal, replicate 2 = 1993; activity call = inactive
Coq8 (Coenzyme Q8) | firefly Hh reporter signal, replicate 1 = 52688; firefly Hh reporter signal, replicate 2 = 2.25e5; Renilla reference signal, replicate 1 = 1564; Renilla reference signal, replicate 2 = 8304; activity call = inactive

Results, from the start:
Gcn2 | firefly Hh reporter signal, replicate 1 = 56411; firefly Hh reporter signal, replicate 2 = 67112; Renilla reference signal, replicate 1 = 1705; Renilla reference signal, replicate 2 = 1993; activity call = inactive
Coq8 (Coenzyme Q8) | firefly Hh reporter signal, replicate 1 = 52688; firefly Hh reporter signal, replicate 2 = 2.25e5; Renilla reference signal, replicate 1 = 1564; Renilla reference signal, replicate 2 = 8304; activity call = inactive
CR17438 (pseudo) | firefly Hh reporter signal, replicate 1 = 86768; firefly Hh reporter signal, replicate 2 = 3.06e5; Renilla reference signal, replicate 1 = 2816; Renilla reference signal, replicate 2 = 10907; activity call = inactive
CG9877 | firefly Hh reporter signal, replicate 1 = 1.45e5; firefly Hh reporter signal, replicate 2 = 84325; Renilla reference signal, replicate 1 = 3595; Renilla reference signal, replicate 2 = 7298; activity call = inactive
Or59a (Odorant receptor 59a) | firefly Hh reporter signal, replicate 1 = 80669; firefly Hh reporter signal, replicate 2 = 40487; Renilla reference signal, replicate 1 = 2358; Renilla reference signal, replicate 2 = 4045; activity call = inactive
bard | firefly Hh reporter signal, replicate 1 = 4.69e5; firefly Hh reporter signal, replicate 2 = 63589; Renilla reference signal, replicate 1 = 21233; Renilla reference signal, replicate 2 = 1841; activity call = inactive
CG1136 | firefly Hh reporter signal, replicate 1 = 1.29e5; firefly Hh reporter signal, replicate 2 = 92009; Renilla reference signal, replicate 1 = 5136; Renilla reference signal, replicate 2 = 3920; activity call = inactive
Ccdc114 (Coiled-coil domain containing protein 114) | firefly Hh reporter signal, replicate 1 = 65981; firefly Hh reporter signal, replicate 2 = 83403; Renilla reference signal, replicate 1 = 1604; Renilla reference signal, replicate 2 = 2444; activity call = inactive
Cyp313a4 (Cytochrome P450 313a4) | firefly Hh reporter signal, replicate 1 = 72964; firefly Hh reporter signal, replicate 2 = 1.06e5; Renilla reference signal, replicate 1 = 2105; Renilla reference signal, replicate 2 = 2710; activity call = inactive
Nhe2 (Na[+]/H[+] hydrogen exchanger 2) #1 | firefly Hh reporter signal, replicate 1 = 81489; firefly Hh reporter signal, replicate 2 = 54507; Renilla reference signal, replicate 1 = 2058; Renilla reference signal, replicate 2 = 4640; activity call = inactive
Nhe2 (Na[+]/H[+] hydrogen exchanger 2) #2 | firefly Hh reporter signal, replicate 1 = 90519; firefly Hh reporter signal, replicate 2 = 50928; Renilla reference signal, replicate 1 = 2450; Renilla reference signal, replicate 2 = 4019; activity call = inactive
mRpS9 (mitochondrial ribosomal protein S9) #1 | firefly Hh reporter signal, replicate 1 = 2.01e5; Renilla reference signal, replicate 1 = 3531; activity call = inactive
mRpS9 (mitochondrial ribosomal protein S9) #2 | firefly Hh reporter signal, replicate 1 = 76836; firefly Hh reporter signal, replicate 2 = 4.53e5; firefly Hh reporter signal, replicate 3 = 1.66e5; Renilla reference signal, replicate 1 = 2866; Renilla reference signal, replicate 2 = 2873; activity call = inactive
lncRNA:CR34046 (long non-coding RNA:CR34046) | firefly Hh reporter signal, replicate 1 = 4.32e5; firefly Hh reporter signal, replicate 2 = 2.17e5; Renilla reference signal, replicate 1 = 21969; Renilla reference signal, replicate 2 = 4649; activity call = inactive
CG13921 | firefly Hh reporter signal, replicate 1 = 1.78e5; firefly Hh reporter signal, replicate 2 = 1.20e5; Renilla reference signal, replicate 1 = 8236; Renilla reference signal, replicate 2 = 4963; activity call = inactive
MESK2 + CG10494 | firefly Hh reporter signal, replicate 1 = 64676; firefly Hh reporter signal, replicate 2 = 44249; Renilla reference signal, replicate 1 = 1766; Renilla reference signal, replicate 2 = 4482; activity call = inactive
CG13287 | firefly Hh reporter signal, replicate 1 = 3.40e5; firefly Hh reporter signal, replicate 2 = 43725; Renilla reference signal, replicate 1 = 2137; Renilla reference signal, replicate 2 = 2137; activity call = inactive
Ino80 (INO80 complex subunit) #1 | firefly Hh reporter signal, replicate 1 = 6.18e5; firefly Hh reporter signal, replicate 2 = 93061; Renilla reference signal, replicate 1 = 27440; Renilla reference signal, replicate 2 = 1891; activity call = inactive
Ino80 (INO80 complex subunit) #2 | firefly Hh reporter signal, replicate 1 = 6.02e5; firefly Hh reporter signal, replicate 2 = 66092; Renilla reference signal, replicate 1 = 23541; Renilla reference signal, replicate 2 = 1240; activity call = inactive
Ino80 (INO80 complex subunit) #3 | firefly Hh reporter signal, replicate 1 = 5.47e5; firefly Hh reporter signal, replicate 2 = 92098; Renilla reference signal, replicate 1 = 25220; Renilla reference signal, replicate 2 = 1720; activity call = inactive
CG10920 | firefly Hh reporter signal, replicate 1 = 65493; firefly Hh reporter signal, replicate 2 = 1.82e5; Renilla reference signal, replicate 1 = 2130; Renilla reference signal, replicate 2 = 6929; activity call = inactive
